Patent US11813267B2, “DNA-PK inhibitors” (Vertex Pharmaceuticals Incorporated, priority 2013, dated 2023)
Some of these results come from one statement about several compounds together.

Chains of the proteins cited; added tags and fusions are not shown.
UniProt P78527, whole entry: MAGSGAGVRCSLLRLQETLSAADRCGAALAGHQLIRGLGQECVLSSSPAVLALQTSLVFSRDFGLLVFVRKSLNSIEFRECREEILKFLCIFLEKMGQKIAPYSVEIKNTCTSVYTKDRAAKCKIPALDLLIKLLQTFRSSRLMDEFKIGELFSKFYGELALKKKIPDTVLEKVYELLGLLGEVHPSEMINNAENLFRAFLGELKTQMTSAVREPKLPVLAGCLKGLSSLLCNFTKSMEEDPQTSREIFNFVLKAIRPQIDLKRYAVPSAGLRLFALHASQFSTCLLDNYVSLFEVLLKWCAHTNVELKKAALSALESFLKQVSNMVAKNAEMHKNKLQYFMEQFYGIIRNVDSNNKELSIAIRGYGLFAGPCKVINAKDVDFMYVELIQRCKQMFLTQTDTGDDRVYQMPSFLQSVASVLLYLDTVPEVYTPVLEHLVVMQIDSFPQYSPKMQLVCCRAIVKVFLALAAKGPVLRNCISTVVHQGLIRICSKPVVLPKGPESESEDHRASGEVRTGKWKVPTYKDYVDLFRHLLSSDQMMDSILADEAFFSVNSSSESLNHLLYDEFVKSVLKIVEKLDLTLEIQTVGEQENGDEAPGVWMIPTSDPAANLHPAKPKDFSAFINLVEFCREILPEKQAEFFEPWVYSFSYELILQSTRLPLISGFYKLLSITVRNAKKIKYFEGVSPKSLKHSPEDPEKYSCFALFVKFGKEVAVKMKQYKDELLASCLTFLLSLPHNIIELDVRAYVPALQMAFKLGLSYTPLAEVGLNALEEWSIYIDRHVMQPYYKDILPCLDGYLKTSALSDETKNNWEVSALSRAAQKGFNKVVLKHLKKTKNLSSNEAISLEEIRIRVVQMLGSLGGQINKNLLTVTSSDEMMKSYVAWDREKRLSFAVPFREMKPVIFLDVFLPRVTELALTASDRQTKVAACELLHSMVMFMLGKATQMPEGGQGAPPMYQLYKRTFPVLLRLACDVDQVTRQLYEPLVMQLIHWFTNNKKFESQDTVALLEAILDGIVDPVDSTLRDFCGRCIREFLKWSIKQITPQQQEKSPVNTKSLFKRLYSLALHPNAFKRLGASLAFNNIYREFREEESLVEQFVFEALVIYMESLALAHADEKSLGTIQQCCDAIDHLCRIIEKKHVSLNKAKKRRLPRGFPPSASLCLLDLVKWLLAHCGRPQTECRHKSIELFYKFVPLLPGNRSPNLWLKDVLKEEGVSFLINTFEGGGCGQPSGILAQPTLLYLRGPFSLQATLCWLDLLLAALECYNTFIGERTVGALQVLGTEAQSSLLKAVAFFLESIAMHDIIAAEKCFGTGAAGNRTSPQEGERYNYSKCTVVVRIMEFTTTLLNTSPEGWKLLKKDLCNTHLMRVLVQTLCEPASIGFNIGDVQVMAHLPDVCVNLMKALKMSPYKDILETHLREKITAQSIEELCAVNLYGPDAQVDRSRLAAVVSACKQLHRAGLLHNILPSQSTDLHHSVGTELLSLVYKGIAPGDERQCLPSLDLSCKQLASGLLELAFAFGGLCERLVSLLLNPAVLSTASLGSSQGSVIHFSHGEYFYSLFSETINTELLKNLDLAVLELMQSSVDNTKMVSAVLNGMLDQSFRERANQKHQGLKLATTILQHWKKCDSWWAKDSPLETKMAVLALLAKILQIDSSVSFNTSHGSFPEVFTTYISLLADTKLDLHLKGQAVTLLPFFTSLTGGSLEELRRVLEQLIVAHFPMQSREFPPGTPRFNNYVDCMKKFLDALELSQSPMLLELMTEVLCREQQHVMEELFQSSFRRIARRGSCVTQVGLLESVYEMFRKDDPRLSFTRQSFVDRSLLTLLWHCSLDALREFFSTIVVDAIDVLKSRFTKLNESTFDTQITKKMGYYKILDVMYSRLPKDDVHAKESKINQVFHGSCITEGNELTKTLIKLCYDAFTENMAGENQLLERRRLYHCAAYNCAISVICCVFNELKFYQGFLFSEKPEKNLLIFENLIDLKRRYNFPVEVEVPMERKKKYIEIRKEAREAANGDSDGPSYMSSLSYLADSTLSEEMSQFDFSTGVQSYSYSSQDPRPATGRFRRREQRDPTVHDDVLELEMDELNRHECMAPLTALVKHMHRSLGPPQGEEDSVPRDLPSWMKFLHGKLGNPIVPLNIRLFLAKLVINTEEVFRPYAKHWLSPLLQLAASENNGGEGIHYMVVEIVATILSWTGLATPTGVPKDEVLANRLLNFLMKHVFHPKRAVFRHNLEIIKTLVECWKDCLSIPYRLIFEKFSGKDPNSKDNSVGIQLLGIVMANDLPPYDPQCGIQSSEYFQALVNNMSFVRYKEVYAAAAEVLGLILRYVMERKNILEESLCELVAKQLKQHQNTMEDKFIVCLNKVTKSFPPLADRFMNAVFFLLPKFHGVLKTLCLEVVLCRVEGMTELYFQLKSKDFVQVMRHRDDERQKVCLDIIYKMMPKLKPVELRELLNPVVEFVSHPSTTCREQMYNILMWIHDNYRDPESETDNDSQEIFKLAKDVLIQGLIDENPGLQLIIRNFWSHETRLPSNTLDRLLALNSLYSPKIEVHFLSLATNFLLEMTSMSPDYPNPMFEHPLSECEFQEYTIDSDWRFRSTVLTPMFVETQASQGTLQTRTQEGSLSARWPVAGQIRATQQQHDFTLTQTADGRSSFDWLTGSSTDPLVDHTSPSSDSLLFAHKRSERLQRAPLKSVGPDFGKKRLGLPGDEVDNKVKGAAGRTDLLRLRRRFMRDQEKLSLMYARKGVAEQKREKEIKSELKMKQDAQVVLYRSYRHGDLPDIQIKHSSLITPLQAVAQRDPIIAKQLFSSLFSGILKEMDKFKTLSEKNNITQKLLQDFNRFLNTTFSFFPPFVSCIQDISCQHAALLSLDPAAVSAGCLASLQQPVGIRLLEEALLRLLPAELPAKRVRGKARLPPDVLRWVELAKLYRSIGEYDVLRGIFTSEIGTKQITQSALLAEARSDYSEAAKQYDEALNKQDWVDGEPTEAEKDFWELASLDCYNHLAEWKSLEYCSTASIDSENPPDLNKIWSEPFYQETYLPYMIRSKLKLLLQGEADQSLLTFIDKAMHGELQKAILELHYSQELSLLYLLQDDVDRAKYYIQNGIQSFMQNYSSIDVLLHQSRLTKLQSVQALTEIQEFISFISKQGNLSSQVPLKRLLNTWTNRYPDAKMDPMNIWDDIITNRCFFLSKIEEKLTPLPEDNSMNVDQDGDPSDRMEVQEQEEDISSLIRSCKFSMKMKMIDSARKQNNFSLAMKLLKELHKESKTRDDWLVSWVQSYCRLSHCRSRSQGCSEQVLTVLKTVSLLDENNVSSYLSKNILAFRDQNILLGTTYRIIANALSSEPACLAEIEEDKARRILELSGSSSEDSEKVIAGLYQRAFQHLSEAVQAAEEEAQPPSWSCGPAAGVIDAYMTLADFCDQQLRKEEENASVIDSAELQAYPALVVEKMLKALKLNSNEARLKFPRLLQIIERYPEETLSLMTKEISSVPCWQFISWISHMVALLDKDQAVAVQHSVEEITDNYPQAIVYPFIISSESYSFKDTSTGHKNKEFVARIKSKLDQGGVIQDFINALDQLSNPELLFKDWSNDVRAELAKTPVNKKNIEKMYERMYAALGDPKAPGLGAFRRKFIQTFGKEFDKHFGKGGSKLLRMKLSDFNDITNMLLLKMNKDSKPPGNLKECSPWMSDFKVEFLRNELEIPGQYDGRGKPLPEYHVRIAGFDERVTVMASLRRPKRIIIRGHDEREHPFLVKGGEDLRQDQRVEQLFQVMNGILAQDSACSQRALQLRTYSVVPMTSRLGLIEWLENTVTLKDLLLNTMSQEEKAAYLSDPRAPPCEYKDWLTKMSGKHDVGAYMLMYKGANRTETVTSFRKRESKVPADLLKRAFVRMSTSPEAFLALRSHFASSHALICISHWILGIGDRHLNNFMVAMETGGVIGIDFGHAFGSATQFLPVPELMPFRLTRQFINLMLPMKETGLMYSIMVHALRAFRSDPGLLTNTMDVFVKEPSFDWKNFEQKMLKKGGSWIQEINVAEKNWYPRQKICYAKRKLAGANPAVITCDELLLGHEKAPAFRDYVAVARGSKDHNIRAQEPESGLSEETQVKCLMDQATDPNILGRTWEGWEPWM

Target: DNA-PK (Homo sapiens, UniProt P78527)
Assay: DNA-PK inhibition assay (standard radiometric 33P-ATP kinase assay)
Assay type: biochemical
Conditions: approx. 6 nM DNA-PK, 100 μM ATP, 45 min, competitive tight-binding fit

c1cnc2c(O[C@H]3CC[C@@H](Nc4ncc(C5CCNCC5)cn4)CC3)cc(N3CCOCC3)cc2n1 [Compound 271]
Ki: < 100 nM

c1cncc(N[C@H]2CC[C@@H](Oc3cc(N4CCOCC4)cc4nccnc34)CC2)c1 [Compound 272]
Ki for the inhibition of DNA-PK: less than 0.10 micromolar

c1cc(N[C@H]2CC[C@@H](Oc3cc(N4CCOCC4)cc4nccnc34)CC2)ccn1 [Compound 273]
Ki for the inhibition of DNA-PK: less than 0.10 micromolar

CN1CCC(c2cnc(N[C@H]3CC[C@@H](Oc4cc(N5CCOCC5)cc5nccnc45)CC3)nc2)CC1 [Compound 274]
Ki: < 100 nM

Cc1nc(N[C@H]2CC[C@@H](Oc3cc(N4CCOCC4)cc4nccnc34)CC2)cc(N2CCN(C)CC2)n1 [Compound 275]
Ki for the inhibition of DNA-PK: less than 0.10 micromolar

COc1cc(C)nc(N[C@H]2CC[C@@H](Oc3cc(N4CCOCC4)cc4nccnc34)CC2)n1 [Compound 276]
Ki for the inhibition of DNA-PK: less than 0.10 micromolar

Fc1c(Cl)ncnc1N[C@H]1CC[C@@H](Oc2cc(N3CCOCC3)cc3nccnc23)CC1 [Compound 277]
Ki for the inhibition of DNA-PK: less than 0.10 micromolar
